Chains of the proteins cited; added tags and fusions are not shown. Chains listed by the source or under a name are the forms on record and can include a tag or linker.
VEGF121 (Homo sapiens), one chain, as listed by the source: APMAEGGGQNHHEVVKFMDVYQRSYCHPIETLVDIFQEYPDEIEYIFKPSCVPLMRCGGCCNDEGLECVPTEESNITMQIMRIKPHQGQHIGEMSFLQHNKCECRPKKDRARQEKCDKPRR
VEGF165 (Homo sapiens), one chain, as listed by the source: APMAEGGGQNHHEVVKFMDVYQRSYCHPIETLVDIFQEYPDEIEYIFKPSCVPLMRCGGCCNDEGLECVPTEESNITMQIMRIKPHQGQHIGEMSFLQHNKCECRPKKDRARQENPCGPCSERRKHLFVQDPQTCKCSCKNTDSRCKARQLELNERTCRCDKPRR

According to publication PMC3547035:

Assays:
[1] = test system: VEGF121 (Homo sapiens); assay: SPR; settings: SPR BIAcore 2000, CM5 chip, immobilized protein ~200 RU, PBS + Tween-20 running buffer (pH not stated), 25 C, aptamer 0.2-100 nM, 1:1 Langmuir fit; recombinant protein; protein details: carrier free; single-stranded DNA
[2] = test system: VEGF165 (Homo sapiens); assay: SPR; settings: SPR BIAcore 2000, CM5 chip, immobilized protein ~200 RU, PBS + Tween-20 running buffer (pH not stated), 25 C, aptamer 0.2-100 nM, 1:1 Langmuir fit; recombinant protein; protein details: carrier free; single-stranded DNA

Question: Which Kd [1] does the source give for “CAATTGGGCCCGTCCGTATGGTGGGT [Unmodified SL2-B]” here?
Answer: 10 µM

Question: And the Kd [2]?
Answer: 0.0005 µM

For at least one entry, the source does not settle the construct or the ends of the probe.
